## Screening data, single-dose tests

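Whole-parasite assay of Trypanosoma brucei over 72 hours; the read-out is not stated. Tested at 30 µM. Direction is inferred from retests: higher values go with stronger inhibition. Values scatter widely below zero; nearly all retest evidence comes from the higher of the two concentrations used. About 64,000 compounds were tested under these conditions; 1.5% (about 940) showed 50% or more at least once.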

Results are given as percent effect. The record does not define 0% and 100%; most values in the screen are far below 50% and negative numbers occur (in some assays of this library far below -100). The compounds are a random part of those screened.

| SMILES | Percent Effect |
|---|---|
| `COc1cc(CNc2cnn(C)c2)cc2c1OCCO2` | -11.5% |
| `Cc1noc(C)c1CS(=O)(=O)Cc1nc(C2CC2)no1` | -19.41% |
| `O=c1c(S(=O)(=O)N2CCCC2)cccn1Cc1c(F)cccc1Cl` | 0.9846% |
| `CCN1CCc2onc(CNc3ncccn3)c2C1` | -25.06% |
| `COCc1nc(CNC(=O)c2cc(C)c(C)[nH]c2=O)no1` | -20.9% |
| `O=S(=O)(c1cccnc1)N1CCCC1COc1ccccc1` (stereo not drawn) | -39.27% |
| `[H][C@@]12C[C@@H](Oc3cccnc3)CN1CCN(Cc1cnn(C)c1)C2` | -12.41% |
| `CN(Cc1cscn1)C1CCCN(Cc2noc(C3CC3)n2)C1` (stereo not drawn) | -28.03% |
| `O=C(c1cc(=O)[nH]c(=O)[nH]1)N1CCCCC1c1ccc(F)cc1` (stereo not drawn) | -26.73% |
| `CCNc1cc2c(nn1)CCN(C(=O)c1cc(C)no1)C2` | 2.614% |
| `CCOc1ccnc(N2CCN(C(=O)CCc3cnn(C)c3)CC2)n1` | 11.76% |
| `CN(C)c1cc2c(nn1)CCN(C(=O)c1cc3c(s1)CCC3)C2` | 17.55% |
| `CC(=O)N1CC(=O)N(c2cnn(C)c2)CC12CCN(Cc1ccsc1)C2.O=C(O)C(F)(F)F.O=C(O)C(F)(F)F` (stereo not drawn) | -32.97% |
| `COC(=O)[C@@H](NC(=O)c1coc(COc2cccc(F)c2F)n1)C(C)C` | -0.7691% |
| `CCOc1ccc(CN2CCC(c3nc(C)cc(C)n3)C2)cc1CO` (stereo not drawn) | 13.64% |
| `Cc1cc(C)n(-c2cncc(NCCNC(=O)C(C)(C)C)n2)n1` | -5.063% |
| `CC(C)COC1CC2(CCN(C(=O)Cc3ccccn3)CC2)C1.O=C(O)C(F)(F)F` | 40.18% |
| `[H][C@@]12CN(Cc3ccc(OC)cc3)C[C@]1([H])OCC(=O)N2Cc1nccn1C` | -10.6% |
| `CC(C)n1cc(CN2CCCN(C(=O)CC3CCCO3)CC2)cn1` (stereo not drawn) | -14.31% |
| `Oc1cc(-c2ccsc2)nc(C2CCN(Cc3ccncc3)CC2)n1` | -5.707% |
| `O=C(CN1CC(c2nc(C3CC3)no2)C1)NCC1CCCO1.O=C(O)C(=O)O` (stereo not drawn) | -1.256% |
| `O=C(O)C(F)(F)F.O=C(O)C(F)(F)F.[H][C@@]12COC[C@]1([H])[C@@H](OCCN(C)C)CN2Cc1ccc(C)o1` | -11.33% |
| `CN1CC(=O)N(c2ccccc2)CC12CCN(C(=O)c1cnccn1)C2.O=C(O)C(F)(F)F` (stereo not drawn) | -9.875% |
| `CN1CC=C(c2noc(CCC(=O)N3CCc4ccccc43)n2)CC1` | -24.43% |
| `CCc1nc(Cn2c(=O)n(CC)c3ccccc32)no1` | -33.29% |
| `CC(C)N1CCCC1c1nc(N(C)C)ncc1I` (stereo not drawn) | -13.48% |
| `COCc1ccc(C(=O)N2CCOCC2c2ccc(C)o2)cc1` (stereo not drawn) | 39.64% |
| `O=C(CC1CC1)N1CCC2(COCc3cnc(-c4cccnc4)nc32)C1` (stereo not drawn) | -80.74% |
| `CCN(C(=O)CN(Cc1cccc(O)c1)C1CCC(O)CC1)C1CC1` (stereo not drawn) | -12.1% |
| `CCN(C)C[C@H]1CC[C@@H](Cc2ccc3c(cnn3C)c2)O1` | -43.83% |
| `Cc1c[nH]c(C2COCCN2S(=O)(=O)c2cn[nH]c2)n1` (stereo not drawn) | 8.998% |
| `CN(C)[C@H]1CN(C(=O)c2ccc3sc4c(c3c2)CCNC4=O)C[C@@H]1O` | -24.99% |
| `CC(=O)N1C[C@H](NS(=O)(=O)c2cccc(Cl)c2)[C@@H](C(C)C)C1` | -19.96% |
| `O=C(COc1cccc2c1CCC2=O)NCCOc1ccccc1` | -15.81% |
| `CC1CCCN(C(=O)CCNS(=O)(=O)c2cccnc2)C1` (stereo not drawn) | -33.06% |
| `CNC(=O)Cc1noc(-c2cc3c(s2)CCC(C)(C)C3)n1` | -56.01% |
| `O=C(Cc1ccc2c(c1)OCCO2)NC1CCCC1` | -28.08% |
| `CC1CN(C(=O)c2ccc(=O)n(C)c2)c2ccccc2NC1=O` (stereo not drawn) | -18.38% |
| `O=C(O)C(F)(F)F.O=C(O)C(F)(F)F.[H][C@@]12COC[C@H](NS(C)(=O)=O)[C@]1([H])CN(Cc1cccc(C)n1)C2` | -15.48% |
| `CCc1cnc(CN(C)C2CCN(CCc3cccs3)C2)o1` (stereo not drawn) | -9.63% |
| `COC(=O)c1cc2c(=O)[nH]c(=O)n(CCc3ccccc3)c2nc1C` | -17.06% |
| `COc1c(CNCCC(=O)NC2CCCCC2)c(C(C)C)nn1C` | -19.16% |
| `C[C@@H]1CN(S(=O)(=O)c2ccc(F)cc2Cl)C[C@]1(C)O` | -29.89% |
| `Cc1cc(C2CCC2)nc(N2CCC3(CCCN(C)C3=O)C2)n1` (stereo not drawn) | -15.23% |
| `C[C@H]1CN(Cc2cccc(F)c2)C[C@@]12CCN(CC(=O)N(C)C)C2=O.O=C(O)C(F)(F)F` | -8.52% |
| `O=C(c1ccc[nH]1)N1CCOC2(COCCN(c3cncnc3)C2)C1` (stereo not drawn) | -0.6109% |
| `COc1ccc(CN2CCN(c3nccnc3OC)CC2=O)cc1` | -43.24% |
| `Cc1noc(C(C)C)c1C(=O)NCCCN1CCCC1` | 0.8694% |
| `CC1CCN(C(=O)c2cnc3cc(C(=O)N(C)C)n(C)c3c2)CC1` | -24.98% |
| `CCCNS(=O)(=O)c1cc2c3c(c1)c(C)cc(=O)n3CCC2` | -49.38% |
| `CN(C)[C@@H]1CO[C@H](CNC(=O)C2CCCC2)[C@H]1O` | -48.86% |
| `CSc1nc2ccsc2c(=O)n1CC(=O)N1CCCCC1C` (stereo not drawn) | -25.2% |
| `O=C(O)c1ccc(S(=O)(=O)Nc2cnn(CC(F)(F)F)c2)cc1` | 1.155% |
| `CN(C)C(=O)CN1C(=O)CCC12CCN(Cc1ccsc1)CC2.O=C(O)C(F)(F)F` | -46.27% |
| `CCN(CC)C(=O)c1ccc(Cl)c(NC(=O)c2cc[nH]n2)c1` | -21.82% |
| `Cc1ccccc1CS(=O)(=O)NCCCN1CCCC1` | 7.001% |
| `O=S(=O)(N1CCOCC1)N1CCc2sccc2C1` | -11.21% |
| `O=C(O)C(F)(F)F.O=S(=O)(C1CC1)N1CCCn2cnc(COc3cccnc3)c2C1` | -53.73% |
| `CC1(Cc2ccc3c(c2)OCO3)CCCN(S(=O)(=O)N2CCOCC2)C1` (stereo not drawn) | 13.62% |
| `c1ccc(Cc2nc(CNC3CCC4(CCNCC4)CC3)no2)cc1` | -15.77% |
| `c1ccc(-c2cc(CN3CCCCCC3c3ccco3)on2)nc1` (stereo not drawn) | -40.46% |
| `CSC(C)C(=O)N1CCCN(Cc2cnn(C(C)C)c2)CC1` (stereo not drawn) | -31.91% |
| `CNC(=O)c1ccnc(CC2COc3c(cccc3OC)C2)c1` (stereo not drawn) | -45.4% |
| `[H][C@@]12CS(=O)(=O)C[C@]1([H])N(C(=O)c1cc(C(C)C)no1)CCN2C(=O)C(C)C` | 4.38% |
| `Cc1cc(NC(=O)C(C)Nc2cccc(COCc3ccco3)c2)no1` (stereo not drawn) | -7.717% |
| `CC(=O)N1CCOC2(CCCN(C(=O)c3ccc(Cl)cc3)C2)C1` (stereo not drawn) | -97.25% |
| `N#Cc1ccccc1OCCN1CCCC1Cn1cncn1` (stereo not drawn) | -21.02% |
| `CCOCCC1(C(=O)N2CCCC(c3ncc[nH]3)C2)CCCC1` (stereo not drawn) | -22.37% |
| `O=C(NCc1ccc2c(c1)CCCO2)c1cn2c(n1)CNCC2` | -20.74% |
| `Cc1cc(C(=O)N2CCCC3(COCCN(c4ncccn4)C3)C2)[nH]n1.O=C(O)C(F)(F)F.O=C(O)C(F)(F)F` (stereo not drawn) | -62.05% |
| `Cc1nc(N(C)C)nc(N2CCC3(CC2)CNC(=O)O3)c1C` | -29.71% |
| `Cc1ccc(CN2CC3(CCN(C(=O)C4CC4)CC3)CC2C(=O)O)o1` (stereo not drawn) | -9.103% |
| `Cc1ccc(OCCCC(=O)NC(C)c2ccc(S(N)(=O)=O)cc2)cc1` (stereo not drawn) | -55.34% |
| `c1cc(C2CCN(Cc3nc(-c4ccsc4)no3)CC2)[nH]n1` | -28.41% |
| `COc1ccc(NC(=O)Cc2c(C)nn(C)c2C)cc1F` | -12.33% |
| `CC(C)NC(=O)C1CCN(Cn2ccc(-c3ccc(F)cc3)n2)CC1` | -53.41% |
| `CN(CCCN1CCOCC1)[C@@H]1c2ccccc2C2(CCNCC2)[C@H]1O` | -37.79% |
| `Cc1ccc(CNC(=O)NC(C)CCS(C)(=O)=O)cc1F` (stereo not drawn) | -4.267% |

Repeated from the top, 7 entries:

SMILES,Percent Effect
COc1cc(CNc2cnn(C)c2)cc2c1OCCO2,-11.5%
Cc1noc(C)c1CS(=O)(=O)Cc1nc(C2CC2)no1,-19.41%
O=c1c(S(=O)(=O)N2CCCC2)cccn1Cc1c(F)cccc1Cl,0.9846%
CCN1CCc2onc(CNc3ncccn3)c2C1,-25.06%
COCc1nc(CNC(=O)c2cc(C)c(C)[nH]c2=O)no1,-20.9%
O=S(=O)(c1cccnc1)N1CCCC1COc1ccccc1 (stereo not drawn),-39.27%
[H][C@@]12C[C@@H](Oc3cccnc3)CN1CCN(Cc1cnn(C)c1)C2,-12.41%

Data taken from ChEMBL document CHEMBL3988442, “University of Dundee, Small-Polar-MMV Screening Library” (2021).